Results as given in PubChem BioAssay AID2551 (National Center for Advancing Translational Sciences (NCATS), 2010).
The whole screen tested about 310,000 compounds, of which about 17,000 (5.5%) were called active. The shares of active, inactive and inconclusive entries below differ from those in the screen. Calls come from the whole dose curve; as a rule, active = well fitted inhibition curve with a large enough effect; inconclusive = small, poorly fitted or top-dose-only effect, or effect the other way; inactive = no such curve, though single readings can be large or run the other way. Potencies of inconclusive entries are doubtful fits and often do not repeat.

The chains behind the UniProt entries cited, without tags or fusion partners. Where a name states a change or a piece, a line headed by the entry shows the natural chain unless it says otherwise.
UniProt P51450: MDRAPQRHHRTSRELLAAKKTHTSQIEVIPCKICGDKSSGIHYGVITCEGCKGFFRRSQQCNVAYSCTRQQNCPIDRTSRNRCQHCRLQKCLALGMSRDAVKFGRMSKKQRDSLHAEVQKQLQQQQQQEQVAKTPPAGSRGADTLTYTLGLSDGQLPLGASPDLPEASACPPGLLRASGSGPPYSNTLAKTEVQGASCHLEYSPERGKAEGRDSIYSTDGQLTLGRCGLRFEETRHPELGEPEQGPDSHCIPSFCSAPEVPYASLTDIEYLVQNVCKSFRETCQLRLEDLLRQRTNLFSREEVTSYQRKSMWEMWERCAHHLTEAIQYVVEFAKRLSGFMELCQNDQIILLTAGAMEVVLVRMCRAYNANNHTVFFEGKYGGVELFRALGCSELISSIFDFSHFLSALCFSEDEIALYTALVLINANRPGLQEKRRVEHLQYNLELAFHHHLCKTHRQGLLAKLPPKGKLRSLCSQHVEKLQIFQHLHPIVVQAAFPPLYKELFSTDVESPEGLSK

The compounds below were run against Nuclear receptor ROR-gamma (Mus musculus) (UniProt P51450) (assay: qHTS for inhibitors of ROR gamma transcriptional activity). Conditions: Drosophila S2 Gal4-RORgamma UAS-luciferase reporter, 20 h; activity change, negative = inhibition: at 53.6 µM (top of the series).
Procedure, shortened: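 Luciferase reporter read in Schneider cells carrying Gal4-RORγ (mouse) and UAS-Photinus luciferase; cells given compound 1 h before 700 uM copper sulfate induction, then incubated 20 h at ambient temperature.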
% is set by controls: 0 for no effect and ±100 for the full control effect; potency is the fitted concentration of half-maximal effect.
Note: nearly all actives have a fitted effect of over 60% in size.

Potency, inconclusive:
O=C1NC2(CCCCC2)N(C(=O)c2ccccc2)C2=C1CCCC2 11.2 µM [activator, partial curve, poor fit], C/C(=N\NC(=O)c1nnn(-c2nonc2N)c1CN(C)c1ccccc1)c1cccs1 35.5 µM [inhibitor, single point], CON/C=C(\C=Nc1ccc(Cl)cc1)c1ncc(C(F)(F)F)cc1Cl 5.62 µM [inhibitor, single point], CC1=C(/C=C/C(C)=C/C=C/C(C)=C\C=O)C(C)(C)CCC1 20 µM [inhibitor, partial curve, poor fit], C=CCOc1ccc2ccccc2c1CNn1c(C)n[nH]c1=S 0.282 µM [inhibitor, single point], O=C(CCNc1ccc(Br)cc1)c1cccc([N+](=O)[O-])c1 25.1 µM [inhibitor, single point], Cc1cc(NC(=O)CCC(=O)N(Cc2ccco2)C(C(=O)NC2CCCCC2)c2ccccc2)no1 (configuration not stated) 31.6 µM [activator, single point], CC(=O)OCOC(=O)CNc1ccccc1OCCOc1ccccc1NCC(=O)OCOC(C)=O 14.1 µM [inhibitor, single point], CCc1ccccc1N(CC(=O)NC(C)C)C(=O)CCC(=O)Nc1nccs1 6.31 µM [inhibitor, single point], CCCn1c(Nc2ccc(Cl)cc2)nc2ccccc21 15.8 µM [inhibitor, single point], c1ccc(-c2ccc(C3=Nn4c(Cn5nnc6ccccc65)nnc4SC3)cc2)cc1 14.1 µM [activator, partial curve, poor fit], O=C(NCc1cccs1)c1cc(-c2ccc(O)cc2)on1 4.47 µM [activator, single point], Cc1cc(C)n(-c2nc3ccccc3c(=O)n2OCCOc2ccccc2)n1 12.6 µM [inhibitor, single point], COc1ccc(CN(C)C(=O)CCl)cc1 12.6 µM [inhibitor, single point], CCN(CC)S(=O)(=O)c1cccc(NC(=O)c2cc3ccccc3o2)c1 35.5 µM [activator, single point], CC(Oc1ccc2oc3ccccc3c2c1)C(=O)NC12CC3CC(CC(C3)C1)C2 (configuration not stated) 0.005 µM [inhibitor, full curve, poor fit], COc1ccc(-c2c(C(F)(F)F)oc3cc(OCC(=O)Nc4ccccc4C(F)(F)F)ccc3c2=O)cc1OC 35.5 µM [inhibitor, single point], O=C1C2C3C=CC(C3)C2C(=O)N1CCCCCCN1C(=O)C2C3C=CC(C3)C2C1=O (configuration not stated) 14.1 µM [inhibitor, single point], CCOc1ccc(N2C(=O)CC(NCC#N)C2=O)cc1 (configuration not stated) 7.94 µM [inhibitor, partial curve], CCOC(=O)CN1C(=O)S/C(=C/c2ccc(O)c([N+](=O)[O-])c2)C1=O 35.5 µM [inhibitor, single point], COc1ccc(C(CNC(=S)NCc2ccccc2)N2CCCC2)cc1 (configuration not stated) 35.5 µM [inhibitor, single point], Nc1ccc(N2CCCCCC2)cc1 35.5 µM [inhibitor, single point], CCc1nnc(NS(=O)(=O)c2ccc(NC(=O)/C=C/c3ccccc3Cl)cc2)s1 35.5 µM [activator, single point], Cc1cc(C)c2ccc(=S)[nH]c2n1 17.8 µM [inhibitor, partial curve, poor fit], CCCN(C(=O)c1ccco1)c1nnc(-c2cccc(C)c2)s1 8.91 µM [activator, partial curve], CCCC(=O)Nc1c(C(=O)OCC)[nH]c2ccccc12 17.8 µM [activator, single point], Oc1ccccc1/C=N/NC1=NCCCCC1 3.16 µM [inhibitor, full curve], Cc1noc(C)c1S(=O)(=O)N1CCCC(C(=O)c2cccc(OC(C)C)c2)C1 (configuration not stated) 31.6 µM [activator, single point], O=[N+]([O-])c1cccc(-c2ccc(SCc3ccccn3)nn2)c1 14.1 µM [activator, single point], Cc1ccc(SCCSc2nc(C)cc(=O)[nH]2)cc1 0.1 µM [inhibitor, full curve, poor fit], CNc1ccc(Br)cc(C(=O)/C=C/c2cccc(OC)c2)c1=O 35.5 µM [inhibitor, single point], Cc1oc2ccc(OS(C)(=O)=O)cc2c1C(=O)OC(C)C 11.2 µM [activator, single point], Cc1ccc(C(NC(=O)c2ccccc2)C(Cl)Cl)cc1 (configuration not stated) 10 µM [activator, partial curve], CC(=O)c1ccc(N2CCN(C(=O)CCN3C(=S)NC(C)(C)CC3C)CC2)cc1 (configuration not stated) 14.1 µM [inhibitor, partial curve, poor fit], CSc1n[nH]c(N)c1S(=O)(=O)c1ccc(Cl)cc1 14.1 µM [activator, single point], COc1ccc(C(C)NCCC(c2ccc(OC(C)C)cc2)c2ccccc2OC)cc1 (configuration not stated) 35.5 µM [inhibitor, single point], CC(Sc1ccccc1)C(=O)NN=C1CCCCCCC1 (configuration not stated) 35.5 µM [inhibitor, single point], COc1ccc(NC(=S)N/C(=N/CS(=O)(=O)c2ccccc2)c2ccccc2)cc1 28.2 µM [inhibitor, single point], Cc1cc2cc(CNC(=O)c3ccc(S(=O)(=O)N4CCOCC4)cc3)ccc2[nH]1 0.224 µM [activator, partial curve], CC1CCCN(c2ccc(C(=O)Nc3ccc4c(c3)OCO4)cc2[N+](=O)[O-])C1 (configuration not stated) 17.8 µM [activator, partial curve], CC(C)(C)c1ccc(-c2noc(CNC(=O)c3ccco3)n2)cc1 15.8 µM [activator, single point]

Potency, active:
COC(=O)c1cccc(-c2ccc(C(c3c(C)[nH][nH]c3=O)c3c(C)[nH][nH]c3=O)o2)c1 11.2 µM, O=C(Nc1cccc(-c2nc3ccccc3[nH]2)c1)c1ccc(C(=O)Nc2cccc(-c3nc4ccccc4[nH]3)c2)cc1 2 µM, COc1cc2[nH]c(=S)n(Cc3ccc(C)o3)c(=O)c2cc1OC 5.01 µM, N=C1SC(c2ccccc2)C(=O)N1c1ncc(Cc2ccccc2Cl)s1 (configuration not stated) 1.41 µM, CC(=O)Nc1ccc(Nc2cc(C)nc3c(-c4ccccc4)cnn23)cc1 12.6 µM, CNC(=O)CCc1nc(-c2ccc(C(C)(C)C)cc2)no1 0.316 µM, Cn1cc(C(=O)N/N=C/c2cccs2)c2ccccc21 10 µM, COc1ccc(NC(=O)CC2C(=O)N(c3ccc(F)cc3)C(=S)N2NC(=O)c2ccccc2)cc1 (configuration not stated) 12.6 µM, CCCCN(C)S(=O)(=O)c1ccc(C(=O)Nc2nnc(-c3cccs3)o2)cc1 0.316 µM, CCCCC(=O)NC(c1ccccc1OC)c1ccc2cccnc2c1O (configuration not stated) 5.62 µM, COc1cc(/C=N/NC(=S)Nc2cccc(Cl)c2C)ccc1OCC(=O)N1CC(C)OC(C)C1 (configuration not stated) 1.58 µM, Cc1ccc(/C=C/C(=O)c2ccc(O)cc2)cc1 2 µM, COc1ccc(CNC(=S)NC2CCCC2)cc1 8.91 µM, Cn1ccnc1SCC(=O)c1ccc2ccccc2c1 11.2 µM, CC(/C=N/n1c(C2CCCCC2)n[nH]c1=S)=C\c1ccccc1 3.55 µM, C/C(CC(=O)Nc1cc(C)ccn1)=N\NC(=O)c1ccc(C(C)(C)C)cc1 11.2 µM, Cc1ccc(NC(=O)c2nc[nH]c2C(=O)N[C@@H](C)C(=O)OC(C)(C)C)cc1 6.31 µM, Cc1cccc(-c2nsc(SCC(=O)N3CCCC3)n2)c1 7.08 µM

Potency, inactive:
O=C1CCC(=O)N1N1C(=O)C2C3c4ccccc4C(c4ccccc43)C2C1=O (configuration not stated), Cc1cc(C)c2sc(N(CCN(C)C)C(=O)c3c(F)cccc3F)nc2c1, CC(C)(C)Nc1ncnc2sc(-c3ccccc3)cc12, CC(=O)N1c2ccc(S(=O)(=O)NCCC(=O)Nc3ccc(C)c(F)c3)cc2CC1C (configuration not stated), Cc1ccc2nc(SCC(=O)N/N=C/c3ccco3)cc(C)c2c1, COc1ccc2c(c1)C(=O)N(c1ccc(C)cc1C)C(=O)C2(C)C, O=C(COC(=O)c1ccc(O)cc1)NCC1CCCO1 (configuration not stated), COc1ccccc1-c1noc(-c2cc(OC)c(OC)c(OC)c2)n1, Cc1ccccc1OCCC(=O)N1CCN(S(=O)(=O)c2ccc(F)cc2)CC1, COc1ccc(NC(=O)CSc2ccc(-c3ccco3)nn2)cc1, COc1ccc(NC2=C3CCCC=C3N(c3ccc(OC)cc3)C2=O)cc1, CCCC(=O)OC(=O)CCC

Activity change, negative = inhibition, inactive:
COc1ccc(NS(=O)(=O)c2ccc(N3CCOCC3)c(NC(=O)c3ccc(F)cc3)c2)cc1 16.5% [at 10 µM]
